Results reported in PMC5838106, “Cathelicidin promotes inflammation by enabling binding of self-RNA to cell surface scavenger receptors” (Scientific Reports, 2018).

System: dsRNA
Experiment: Synchrotron SAXS of peptide-dsRNA complexes
Type: binding
Conditions: for inter-dsRNA spacing of peptide-dsRNA complex: peptide 10 mg/mL with dsRNA 5 mg/mL; for first peak position q of peptide-dsRNA complex: q10 for square lattices, q1 for columnar lattice

Substance	inter-dsRNA spacing of peptide-dsRNA complex [nm]	first peak position q of peptide-dsRNA complex [Å^−1]	nanocrystal size L of peptide-dsRNA complex (average domain size from first peak width) [nm]
LL37	3.65	0.172	
LLGDFFRKSKEKIGKEFKRIVQRIKDFLRNLVPR [LL34]	3.76	0.167	9.0

Where no end group is shown, it is not given here.
